{"sequences": {"note": "By UniProt entry, the sequences of proteins in these tests, tags left out.", "UniProt Q8TDS4, whole entry": "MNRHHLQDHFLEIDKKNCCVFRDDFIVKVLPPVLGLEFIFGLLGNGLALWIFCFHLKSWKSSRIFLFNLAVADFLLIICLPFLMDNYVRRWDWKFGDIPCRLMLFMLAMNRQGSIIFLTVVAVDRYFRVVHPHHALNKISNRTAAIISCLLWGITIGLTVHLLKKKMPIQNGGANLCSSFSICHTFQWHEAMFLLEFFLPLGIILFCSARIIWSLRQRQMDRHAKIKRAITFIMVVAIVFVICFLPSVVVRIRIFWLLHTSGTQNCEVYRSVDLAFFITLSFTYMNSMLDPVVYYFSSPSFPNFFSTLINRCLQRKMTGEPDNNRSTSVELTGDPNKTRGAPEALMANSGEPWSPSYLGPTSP"}, "source": "patent US7737155B2", "about": "“Nitrogen-containing heterocyclic compounds and methods of use thereof” (Schering Corporation, priority 2005, dated 2010)", "target": "recombinant human nicotinic acid receptor (NAR) (Homo sapiens, UniProt Q8TDS4)", "test": "Nicotinic Acid Receptor Assay: inhibition of forskolin-stimulated cAMP accumulation in CHO cells (MesoScale Discovery cAMP kit)", "format": "cell-based", "settings": "read-out: NA EC50 camp, CHO cells expressing recombinant human NAR", "note": "Structures were worked out from names or drawings and are uncertain."}
{"smiles": "CCCCc1cc(=O)oc2nc(O[C@H]3C[C@@H](COCc4ccccc4)C3)[nH]c(=O)c12", "values": [{"measurement": "EC50", "value": 44, "unit": "nM"}]}
